Percent effect of library compounds

Amino acid sequences for entries named in this document (tags omitted). Residues count along the entry.
UniProt P9WPC5, whole entry: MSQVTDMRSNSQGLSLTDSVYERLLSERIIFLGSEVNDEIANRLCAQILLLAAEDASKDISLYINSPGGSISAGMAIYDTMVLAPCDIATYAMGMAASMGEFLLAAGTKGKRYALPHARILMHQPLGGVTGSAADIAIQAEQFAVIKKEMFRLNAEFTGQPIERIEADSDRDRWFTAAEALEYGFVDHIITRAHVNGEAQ
UniProt P9WPC3, whole entry partner: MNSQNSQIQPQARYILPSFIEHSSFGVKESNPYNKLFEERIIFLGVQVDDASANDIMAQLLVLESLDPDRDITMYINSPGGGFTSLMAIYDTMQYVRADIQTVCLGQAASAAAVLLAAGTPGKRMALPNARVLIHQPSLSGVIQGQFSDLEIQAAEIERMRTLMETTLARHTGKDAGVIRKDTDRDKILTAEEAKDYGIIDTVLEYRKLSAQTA
UniProt I6X8D2, whole entry: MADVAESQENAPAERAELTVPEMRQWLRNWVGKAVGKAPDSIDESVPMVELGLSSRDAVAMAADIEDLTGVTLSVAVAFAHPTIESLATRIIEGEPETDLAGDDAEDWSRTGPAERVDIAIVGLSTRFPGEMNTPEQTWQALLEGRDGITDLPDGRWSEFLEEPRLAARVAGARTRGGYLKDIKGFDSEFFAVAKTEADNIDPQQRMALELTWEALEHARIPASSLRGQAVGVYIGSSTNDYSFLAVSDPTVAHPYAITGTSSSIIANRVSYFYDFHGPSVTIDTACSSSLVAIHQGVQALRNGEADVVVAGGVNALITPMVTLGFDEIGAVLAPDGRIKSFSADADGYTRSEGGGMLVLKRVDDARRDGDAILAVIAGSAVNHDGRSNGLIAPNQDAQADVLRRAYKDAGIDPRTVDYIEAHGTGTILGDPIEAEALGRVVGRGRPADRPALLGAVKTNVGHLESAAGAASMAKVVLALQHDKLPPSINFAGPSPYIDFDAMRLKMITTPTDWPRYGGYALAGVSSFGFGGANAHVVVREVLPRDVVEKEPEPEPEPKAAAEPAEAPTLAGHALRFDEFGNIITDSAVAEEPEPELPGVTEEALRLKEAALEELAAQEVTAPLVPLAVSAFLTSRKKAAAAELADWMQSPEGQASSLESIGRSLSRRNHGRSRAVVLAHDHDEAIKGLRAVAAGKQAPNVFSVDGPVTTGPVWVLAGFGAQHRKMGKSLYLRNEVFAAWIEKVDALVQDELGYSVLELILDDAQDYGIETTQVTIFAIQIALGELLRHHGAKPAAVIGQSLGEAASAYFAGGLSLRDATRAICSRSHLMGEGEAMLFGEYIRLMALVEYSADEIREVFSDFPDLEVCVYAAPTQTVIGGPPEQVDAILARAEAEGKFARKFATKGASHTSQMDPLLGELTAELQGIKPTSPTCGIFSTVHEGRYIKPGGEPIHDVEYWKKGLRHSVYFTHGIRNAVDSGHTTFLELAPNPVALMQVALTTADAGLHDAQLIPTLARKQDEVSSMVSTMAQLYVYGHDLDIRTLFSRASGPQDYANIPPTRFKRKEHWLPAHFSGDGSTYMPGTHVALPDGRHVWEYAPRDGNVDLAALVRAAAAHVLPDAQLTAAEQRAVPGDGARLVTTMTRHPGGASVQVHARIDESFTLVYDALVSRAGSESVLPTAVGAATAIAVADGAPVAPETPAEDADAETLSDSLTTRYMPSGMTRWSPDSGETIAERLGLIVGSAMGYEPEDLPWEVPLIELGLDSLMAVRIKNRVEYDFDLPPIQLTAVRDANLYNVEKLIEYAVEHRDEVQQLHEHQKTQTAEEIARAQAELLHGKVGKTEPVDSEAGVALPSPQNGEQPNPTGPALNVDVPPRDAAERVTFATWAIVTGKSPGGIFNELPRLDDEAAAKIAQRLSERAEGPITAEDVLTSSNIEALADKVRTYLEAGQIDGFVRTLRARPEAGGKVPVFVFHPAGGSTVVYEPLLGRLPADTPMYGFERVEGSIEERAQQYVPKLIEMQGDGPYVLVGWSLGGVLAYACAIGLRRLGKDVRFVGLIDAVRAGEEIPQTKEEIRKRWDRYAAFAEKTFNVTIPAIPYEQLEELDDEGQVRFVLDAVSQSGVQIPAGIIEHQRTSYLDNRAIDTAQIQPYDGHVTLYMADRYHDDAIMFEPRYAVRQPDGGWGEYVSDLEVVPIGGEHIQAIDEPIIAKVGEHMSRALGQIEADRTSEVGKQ
UniProt P9WNZ1, whole entry: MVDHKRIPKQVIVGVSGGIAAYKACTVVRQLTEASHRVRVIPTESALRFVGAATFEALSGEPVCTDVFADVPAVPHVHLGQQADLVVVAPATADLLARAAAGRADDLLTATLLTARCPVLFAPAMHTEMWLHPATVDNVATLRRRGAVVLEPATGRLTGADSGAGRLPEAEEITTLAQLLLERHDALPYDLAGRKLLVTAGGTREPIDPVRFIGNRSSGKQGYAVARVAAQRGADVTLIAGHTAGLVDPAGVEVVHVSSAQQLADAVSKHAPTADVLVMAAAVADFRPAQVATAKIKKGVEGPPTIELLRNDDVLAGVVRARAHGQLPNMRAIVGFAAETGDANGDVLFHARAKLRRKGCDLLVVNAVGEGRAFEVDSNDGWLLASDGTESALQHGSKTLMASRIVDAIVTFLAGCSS
UniProt A4I591, 1-473: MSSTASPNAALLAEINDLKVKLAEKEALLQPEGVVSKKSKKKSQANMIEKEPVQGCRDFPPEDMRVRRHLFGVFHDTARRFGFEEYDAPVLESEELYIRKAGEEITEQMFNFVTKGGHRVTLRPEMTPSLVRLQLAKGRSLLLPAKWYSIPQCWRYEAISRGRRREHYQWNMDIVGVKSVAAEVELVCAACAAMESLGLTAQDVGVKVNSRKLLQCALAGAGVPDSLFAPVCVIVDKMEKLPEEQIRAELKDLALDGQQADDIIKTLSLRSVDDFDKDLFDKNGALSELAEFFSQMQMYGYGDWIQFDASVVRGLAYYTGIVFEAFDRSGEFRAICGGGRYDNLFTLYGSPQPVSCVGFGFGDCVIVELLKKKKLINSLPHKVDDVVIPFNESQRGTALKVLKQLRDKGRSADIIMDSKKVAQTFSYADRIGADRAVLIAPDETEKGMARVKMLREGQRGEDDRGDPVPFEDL
UniProt Q4DA54, 1-478: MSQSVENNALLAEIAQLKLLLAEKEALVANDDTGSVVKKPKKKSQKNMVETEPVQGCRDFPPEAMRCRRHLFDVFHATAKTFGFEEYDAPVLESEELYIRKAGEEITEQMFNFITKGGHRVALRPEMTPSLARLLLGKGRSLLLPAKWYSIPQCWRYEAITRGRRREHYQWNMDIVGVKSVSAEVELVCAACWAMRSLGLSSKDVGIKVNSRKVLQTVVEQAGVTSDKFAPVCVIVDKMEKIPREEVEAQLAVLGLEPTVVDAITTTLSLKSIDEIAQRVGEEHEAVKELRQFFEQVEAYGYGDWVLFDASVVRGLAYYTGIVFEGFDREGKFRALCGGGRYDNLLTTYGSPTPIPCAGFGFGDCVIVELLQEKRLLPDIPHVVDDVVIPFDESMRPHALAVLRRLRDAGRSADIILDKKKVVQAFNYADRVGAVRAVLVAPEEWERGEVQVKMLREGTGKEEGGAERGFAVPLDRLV

From ChEMBL document CHEMBL3988442, “University of Dundee, Small-Polar-MMV Screening Library” (2021).

ClpP1P2: 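ClpP1P2, Mycobacterium tuberculosis (UniProt P9WPC5 and UniProt P9WPC3). Protease assay of ClpP1P2, read by the AMC dye that it sets free. Tested at 50 µM. Direction is inferred from only a few compounds that gave an IC50; most scored high, so higher reads as stronger inhibition. Most other retested compounds had strongly negative values. Of about 69,000 compounds tested this way, about 10 (0.015%) reached 50% or more in at least one test.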
Pks13 thioesterase: 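Polyketide synthase Pks13, Mycobacterium tuberculosis (UniProt I6X8D2). Enzyme assay of the thioesterase domain of polyketide synthase 13; the read-out is not stated. Tested at 30 µM. Higher reads as stronger inhibition (inferred from which compounds were picked for retests). Of about 67,000 compounds tested this way, about 300 (0.46%) reached 50% or more in at least one test.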
CoaBC: 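Enzyme assay of CoaBC with a phosphate dye (Biomol Green) read at 650 nm. Target: Coenzyme A biosynthesis protein CoaBC, Mycobacterium tuberculosis (UniProt P9WNZ1). Compounds at 30 µM. Direction is inferred from only a few compounds that gave an IC50; most scored high, so higher reads as stronger inhibition. Most strong results did not repeat in a second test. About 67,000 compounds were tested under these conditions; 0.06% (about 40) showed 50% or more at least once.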
LiHisRS: 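Histidine-tRNA ligase, Leishmania infantum (UniProt A4I591). Enzyme assay of histidyl-tRNA synthetase; the read-out is not stated. Concentration: 30 µM. The record gives no direction; compounds that gave an IC50 in retests scored well above the rest, so higher reads as stronger inhibition. The assay is labelled LdHisRS but filed under L. infantum. Size under these conditions: about 69,000 compounds, about 410 of them at 50% or above in at least one test.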
TcHisRS: 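Enzyme assay of histidyl-tRNA synthetase; the read-out is not stated. Target: Histidine-tRNA ligase, Trypanosoma cruzi CL Brener (UniProt Q4DA54). Concentration: 30 µM. Direction is inferred from retests: higher values go with stronger inhibition. About 69,000 compounds were tested under these conditions; 0.045% (about 31) showed 50% or more at least once.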

The filed quantity is “Percent Effect” (%).
The controls that fix the scale are not given in the record; negative values are as filed.
The compounds are a random part of those screened.

* NC(=O)c1cccc(-c2cnc(C3CCCNC3)cn2)c1 (stereo unspecified) | ClpP1P2: -14.12%; Pks13 thioesterase: 10.43%; CoaBC: -13.08%; LiHisRS: 9.79%; TcHisRS: 1.13%
* Cc1noc(C2CCC3(CCN(C(=O)c4cc(C5CC5)on4)CC3)O2)n1 (stereo unspecified) | ClpP1P2: -15.97%; Pks13 thioesterase: -4.624%; CoaBC: -5.926%; LiHisRS: 1.389%; TcHisRS: 1.869%
* CN1CCCCC12CCN(C(=O)c1cccn1C)CC2 | ClpP1P2: 3.08%; Pks13 thioesterase: -32.18%; CoaBC: 2.648%; LiHisRS: 15.79%; TcHisRS: 2.299%
* CC(C)Cc1nc(-c2ccnc(N3CCNCC3)n2)no1 | ClpP1P2: -7.993%; Pks13 thioesterase: -9.427%; CoaBC: -10.59%; LiHisRS: 18.75%; TcHisRS: 7.292%
* Cc1nc(-c2ccsc2)ccc1C(=O)NC(C)CN1CCOCC1 (stereo unspecified) | ClpP1P2: -42.3%; Pks13 thioesterase: -6.291%; CoaBC: 3.169%; LiHisRS: 28.57%; TcHisRS: 9.467%
* CN(C)C(=O)[C@@H]1C[C@@H]2CCN(Cc3ccc4c(c3)OCO4)C[C@@H]2O1 | ClpP1P2: -2.827%; Pks13 thioesterase: 2.744%; CoaBC: -0.3861%; LiHisRS: 0%; TcHisRS: 1.639%
* N#Cc1cccc(C(=O)NC2CCc3c(ccc(=O)n3CC3CC3)C2)c1 (stereo unspecified) | ClpP1P2: 11.9%; Pks13 thioesterase: -9.986%; CoaBC: 3.273%; LiHisRS: 3.846%; TcHisRS: 11.73%
* Cc1nn(C)c(Cl)c1C1CCCN1Cc1cn2ccsc2n1 (stereo unspecified) | ClpP1P2: -0.8489%; Pks13 thioesterase: -21.16%; CoaBC: 5.2%; LiHisRS: 12.82%; TcHisRS: 2.299%
* Cc1cc2ncc(C(C)NCc3cccnc3)c(C)n2n1 (stereo unspecified) | ClpP1P2: 5.054%; Pks13 thioesterase: -23.48%; CoaBC: 6.638%; LiHisRS: -1.724%; TcHisRS: -1.571%
* Cc1cnn(CC2CN(CC(=O)Nc3cc(C)no3)CCO2)c1 (stereo unspecified) | ClpP1P2: -29.39%; Pks13 thioesterase: -5.587%; CoaBC: 3.069%; LiHisRS: 12.84%; TcHisRS: 6.471%
* COc1cccc(-c2n[nH]cc2C(=O)NC(C)CC(=O)O)c1 (stereo unspecified) | ClpP1P2: -15.44%; Pks13 thioesterase: 2.349%; CoaBC: 0.9938%; LiHisRS: 3.175%; TcHisRS: 2.564%
* COC(=O)c1cccn1C1CCN(C(=O)c2cc(C)ccc2O)CC1 | ClpP1P2: 7.492%; Pks13 thioesterase: -14.44%; CoaBC: 0.241%; LiHisRS: 5.479%; TcHisRS: 0.7634%
* CCC(C)NC(=O)Nc1cccc(OCC#N)c1 (stereo unspecified) | ClpP1P2: 3.18%; Pks13 thioesterase: -58.66%; CoaBC: 4.204%; LiHisRS: 7.254%; TcHisRS: 2.762%
* O=C1CC(c2ccc(C(=O)O)cc2)c2cnn(Cc3ccco3)c2N1 (stereo unspecified) | ClpP1P2: 0.5648%; CoaBC: 3.544%; LiHisRS: 23.68%; TcHisRS: 4.878%
* Cn1cc(C(NCc2ccc(F)cc2)c2cccc(F)c2)cn1 (stereo unspecified) | ClpP1P2: 0.9193%; Pks13 thioesterase: -27.74%; CoaBC: 2.764%; LiHisRS: 2.521%; TcHisRS: 0.9804%
* CCc1ccc2nc(NCCCN(CCO)CCO)cc(C)c2c1 | ClpP1P2: -0.8544%; Pks13 thioesterase: -30.51%; CoaBC: -24.38%; LiHisRS: 14.67%; TcHisRS: 9.827%
* CCc1n[nH]c(C2CN(Cc3csc(C4CCCC4)n3)CCO2)n1 (stereo unspecified) | ClpP1P2: 5.774%; Pks13 thioesterase: -4.341%; CoaBC: 9.298%; LiHisRS: 10.96%; TcHisRS: 3.175%
* O=C(c1cc(C2CC2)nc2onc(-c3ccccc3)c12)N1CC[C@H](O)C1 | ClpP1P2: -14.05%; Pks13 thioesterase: -9.892%; CoaBC: -1.46%; LiHisRS: 6.667%; TcHisRS: 4.242%